Assay results: US11458122B2, “Methods for treating diseases and nerve injuries” (CHILDREN'S HOSPITAL MEDICAL CENTER, priority 2017, dated 2022)
At least one structure is not confirmed: it was looked up by name or label, or the drawing left a doubt.

Test system: SCs isolated from neonatal rat sciatic nerve
Experiment: SC cultures treated with HDAC inhibitors: morphology, MPZ/phalloidin immunostaining, qRT-PCR
Details: 24 hours

## C/C=C1\NC(=O)[C@H]2CSSCC/C=C/[C@H](CC(=O)N[C@H](C(C)C)C(=O)N2)OC(=O)[C@H](C(C)C)NC1=O [FK228]
  SC process extension / morphology: reduced
